Patent publication US20050260202A1, “Methods for producing proliferating muscle cells” (The Regents of the University of California, priority 2004, published 2005)
These are yes or no findings as the source states them, for the method shown. Some entries that bind do so weakly or less than the wild type.

Protein sequences, listed by entry. Tags and fused reporters are not part of them. Residues count along the entry.
UniProt P09055, residues 21-798: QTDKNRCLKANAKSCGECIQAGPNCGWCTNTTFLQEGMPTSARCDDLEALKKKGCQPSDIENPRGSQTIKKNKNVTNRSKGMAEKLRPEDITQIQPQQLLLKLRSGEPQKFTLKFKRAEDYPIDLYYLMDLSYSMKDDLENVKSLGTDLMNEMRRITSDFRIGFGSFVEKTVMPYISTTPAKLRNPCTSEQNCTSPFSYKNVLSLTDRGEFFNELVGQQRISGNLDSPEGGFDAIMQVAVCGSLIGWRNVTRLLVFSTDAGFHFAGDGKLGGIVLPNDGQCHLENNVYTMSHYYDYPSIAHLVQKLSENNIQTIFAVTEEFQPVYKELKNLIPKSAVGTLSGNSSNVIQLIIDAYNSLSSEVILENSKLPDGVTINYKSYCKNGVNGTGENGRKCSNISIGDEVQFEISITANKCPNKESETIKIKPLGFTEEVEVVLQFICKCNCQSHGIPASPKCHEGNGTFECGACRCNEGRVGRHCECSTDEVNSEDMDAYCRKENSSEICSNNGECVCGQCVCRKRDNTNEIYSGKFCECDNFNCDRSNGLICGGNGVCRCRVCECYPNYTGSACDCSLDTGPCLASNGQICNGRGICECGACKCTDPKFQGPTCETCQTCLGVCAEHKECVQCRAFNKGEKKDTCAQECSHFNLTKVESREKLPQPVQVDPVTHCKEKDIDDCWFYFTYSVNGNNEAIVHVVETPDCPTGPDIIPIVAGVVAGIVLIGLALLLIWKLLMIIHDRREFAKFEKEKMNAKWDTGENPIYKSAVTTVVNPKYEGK

Molecular target: T1, murine Sca-1 (stem cell antigen-1) (murine) (UniProt P05533)
T1 sequence (chain, GPI-anchored membrane protein): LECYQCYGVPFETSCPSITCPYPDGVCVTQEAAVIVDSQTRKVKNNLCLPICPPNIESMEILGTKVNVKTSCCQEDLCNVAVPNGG
Test: western blot of lysates of differentiating C2C12 myoblasts (association; method not described further)

binding: binds
Substance: beta1-integrin (from UniProt P09055 21-798) (receptor)
